Laboratory results as given in article PMC7819943, “Rice protein-binding microarrays: a tool to detect cis-acting elements near promoter regions in rice”.
Some of the results follow.

By UniProt entry, the sequences of proteins in these tests, tags left out.
UniProt Q0JBA9, entry or part of it: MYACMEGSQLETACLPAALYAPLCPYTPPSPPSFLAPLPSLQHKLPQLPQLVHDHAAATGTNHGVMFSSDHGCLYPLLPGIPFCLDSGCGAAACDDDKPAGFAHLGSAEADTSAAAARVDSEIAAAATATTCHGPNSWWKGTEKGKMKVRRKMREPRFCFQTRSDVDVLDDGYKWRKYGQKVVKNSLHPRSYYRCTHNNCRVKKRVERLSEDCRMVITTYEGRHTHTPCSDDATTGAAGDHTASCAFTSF

target: OsWRKY34 (Oryza sativa, UniProt Q0JBA9 1-250); assay: protein-binding microarray (RPBM); PBS, 2% BSA, 51.3 ng/ul salmon testes DNA, 50 uM zinc acetate, 200 nM TF, 25 C, 1 h; high values mean tight binding; conditions: protein: recombinant; tags: N-terminal polyhistidine and DsRed monomer fusion (pET32a); label: CyDye5-dUTP incorporated in the synthesized complementary strand; 3' TTTTT single-stranded linker to array surface; dsDNA, one strand shown
Procedure, shortened: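 An Axon 4000B scanner gave the binding signal as per-feature fluorescence intensity in arbitrary units. This followed washing of a custom Agilent array that had been incubated for 1 h at 25 °C with 200 nM protein in PBS, 2% BSA, salmon testes DNA and 50 µM zinc acetate. The proteins were transcription factors fused at the N-terminus to polyhistidine and DsRed, expressed in E. coli BL21-CodonPlus and purified on Ni–NTA.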

| Sequence | binding signal |
| --- | --- |
| AGGGAGGGAGTAAAGAAAAAGTTTGGGGCGGTGACAAGAGCGGAGTCACCTAGTGCAG | 8610 fluorescence intensity (a.u.) |
| CACGCACCCACAGCACACCCACGCGGCCGCAGCCACGCGCCGGAGTCACCTAGTGCAG | 8310 fluorescence intensity (a.u.) |
| GCGGATGAGATGGGAGATGGCACAAGGGGAAGGGGAGGGCCGGAGTCACCTAGTGCAG | 8560 fluorescence intensity (a.u.) |
| CCGCGAGCTCTTCAAACCTGTGCGATCAAACTGTTGAACTCGGAGTCACCTAGTGCAG | 8270 fluorescence intensity (a.u.) |
| AGAGATGTACTTTGTTTATTGTAGTGAATGGCTGCCTAATCGGAGTCACCTAGTGCAG | 8660 fluorescence intensity (a.u.) |
| TGTCTATAGAAAATGTTTTAATACCAGCGCACTCTCTATACGGAGTCACCTAGTGCAG | 8850 fluorescence intensity (a.u.) |
| GGCGGTTGCTGCGGTGGGGAAGGGGTAGGGAGAAGCCCCTCGGAGTCACCTAGTGCAG | 8990 fluorescence intensity (a.u.) |
| GTCCACCAAATAGCTAGCCTACCATCGTGCGTATTGGACACGGAGTCACCTAGTGCAG | 8340 fluorescence intensity (a.u.) |
| ATACAAGAGGCGGTTTTTTTATTTCCTTTTCTTCCGTTTACGGAGTCACCTAGTGCAG | 13600 fluorescence intensity (a.u.) |
| CGTCGTCGTCGCGCCGGCCGGCTCTCTCTCTCTCTCTCCCCGGAGTCACCTAGTGCAG | 8880 fluorescence intensity (a.u.) |
| TTTTTGCTTAAACCTTGGACCCTGTTACCTGTTTGGCTGACGGAGTCACCTAGTGCAG | 9440 fluorescence intensity (a.u.) |
| ATCAGTAGTACCCCAGATCAGTTTGTTGCTTTGCTGCTTCCGGAGTCACCTAGTGCAG | 11000 fluorescence intensity (a.u.) |
| TCTGTCTATCTATCTAATCTTCACTTGGAAGCAAATTTTGCGGAGTCACCTAGTGCAG | 8250 fluorescence intensity (a.u.) |
| ATTTTGATGCCTAGGACTTGTATTACACGCTCCCTTTCTTCGGAGTCACCTAGTGCAG | 8350 fluorescence intensity (a.u.) |
| TCTAGTCCGTTCTAATCTCTTCCTATAGCTCCTTTTATTTCGGAGTCACCTAGTGCAG | 10300 fluorescence intensity (a.u.) |
| GTCAAACCGCTCCCTGACTGCGCCGAGTTTTATTCCCTGCCGGAGTCACCTAGTGCAG | 9340 fluorescence intensity (a.u.) |
| CCGCCGCCCGACCACGACCAGATCCACGGCTCCTCCTCCGCGGAGTCACCTAGTGCAG | 8180 fluorescence intensity (a.u.) |
| TTAAAGTTTAGGGTTGACTTTCATATAGAGTTTAGGAATGCGGAGTCACCTAGTGCAG | 10900 fluorescence intensity (a.u.) |
| GCCACGCATGCAATTGCAGCCTTGCTTGCCCAAGCTTTACCGGAGTCACCTAGTGCAG | 10200 fluorescence intensity (a.u.) |
| GTAATCCTCTGTTTTACACTTCTATTCCTGTCAGAATCCTCGGAGTCACCTAGTGCAG | 11400 fluorescence intensity (a.u.) |
| TACGGGCTCCATGGTTACTTCGACACCACCGGCACCCACGCGGAGTCACCTAGTGCAG | 10100 fluorescence intensity (a.u.) |

| Sequence | binding signal |
| --- | --- |
| CCCTCGACCGCTCCCGCTTCTCCGACCACTCCGCCCGCGACGGAGTCACCTAGTGCAG | 8580 fluorescence intensity (a.u.) |
| CCTCGTGCACCACGCTAGCTAACCCGCCTAGTTCACGCAACGGAGTCACCTAGTGCAG | 8450 fluorescence intensity (a.u.) |
| ACAACATATATTCTCTGGACAGTTATATCTTTGCTTCTTACGGAGTCACCTAGTGCAG | 9310 fluorescence intensity (a.u.) |
| AATTTAATCTCTCCTTGCAGGTACACTCTCCACCATGTATCGGAGTCACCTAGTGCAG | 9460 fluorescence intensity (a.u.) |
| AAATACCACTCCACCTGCTGCCGTCGCCGCCGCCATCGCCCGGAGTCACCTAGTGCAG | 11500 fluorescence intensity (a.u.) |
| TCACTATACCTGTATGGCTGTATGTATGTGTATACGCTTTCGGAGTCACCTAGTGCAG | 8220 fluorescence intensity (a.u.) |
| GATAGGAGTGATGGGAAATGCTCTCATGCTTGTTTCTTACCGGAGTCACCTAGTGCAG | 8670 fluorescence intensity (a.u.) |
| ATGATTGGCTGTCTGAAGTTCTGTTCATCTATTTAATTAACGGAGTCACCTAGTGCAG | 8430 fluorescence intensity (a.u.) |
| CATACACCACCTTTACCTCGCTAATCGGGTCTCTAATTAGCGGAGTCACCTAGTGCAG | 8420 fluorescence intensity (a.u.) |
| TCTTTTCTTTTACGCTTATACTTATCAGTAAAAATTTAAACGGAGTCACCTAGTGCAG | 8960 fluorescence intensity (a.u.) |
| TCGTGCGTGCGTGTTTAATTGTCAACCCATACACAACTTGCGGAGTCACCTAGTGCAG | 8510 fluorescence intensity (a.u.) |
| ATACTAATGCGATTTCTTTACTTAATTTCCTTTCATAAGTCGGAGTCACCTAGTGCAG | 10500 fluorescence intensity (a.u.) |
| ACTATCTCTCGCTGCAAACCATGACTTCTTTCTAATCTTTCGGAGTCACCTAGTGCAG | 11300 fluorescence intensity (a.u.) |
| GTCTACCTGCAGTCCCGTCGCTCTCTCACCAGCAGCCATGCGGAGTCACCTAGTGCAG | 10800 fluorescence intensity (a.u.) |
| AACTTATACTGCCTCATTTTTCGTCCATACGTTTCTCAATCGGAGTCACCTAGTGCAG | 8290 fluorescence intensity (a.u.) |
| GGCCCGAACCTGTATACATCGCCCGTGTCTTGTGTGTTTCCGGAGTCACCTAGTGCAG | 13800 fluorescence intensity (a.u.) |
| ATTGCCTTTTTCATTGAAACCATATTATGCTGTCATATCCCGGAGTCACCTAGTGCAG | 8450 fluorescence intensity (a.u.) |
| CAGACCAGCCGTAAAACCCTTCCCCATTTTAGCCTCCTCGCGGAGTCACCTAGTGCAG | 8180 fluorescence intensity (a.u.) |
| GCACGAGGGGAGATGTGCGGGCTGCAGTTTTTCTTTTGAACGGAGTCACCTAGTGCAG | 8680 fluorescence intensity (a.u.) |
| AGTGACGCATTTTTTTACATTGACTTTGTGCACTTTGTTACGGAGTCACCTAGTGCAG | 9290 fluorescence intensity (a.u.) |
| GTTCGGGGCGTGTGCTCTAGTTCATATTCTTTCTCGACAGCGGAGTCACCTAGTGCAG | 10400 fluorescence intensity (a.u.) |

Three records drawn at random from those above, as already listed:

| Sequence | binding signal |
| --- | --- |
| CAGACCAGCCGTAAAACCCTTCCCCATTTTAGCCTCCTCGCGGAGTCACCTAGTGCAG | 8180 fluorescence intensity (a.u.) |
| GATAGGAGTGATGGGAAATGCTCTCATGCTTGTTTCTTACCGGAGTCACCTAGTGCAG | 8670 fluorescence intensity (a.u.) |
| GGCCCGAACCTGTATACATCGCCCGTGTCTTGTGTGTTTCCGGAGTCACCTAGTGCAG | 13800 fluorescence intensity (a.u.) |
